Reference: PubChem BioAssay AID743454 (Peter MacCallum Cancer Centre, 2014)

Screen: 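Search for knock-downs that restore vorinostat killing in resistant colon cancer cells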 (primary screen)
Cells: human HCT116-VR colon cancer cells, selected for vorinostat resistance
Knock-down reagent: siRNA pool against human genes, 40 nM siRNA pool
Time to read-out: vorinostat for 24 h, read-out about 72 h after transfection
Conditions: vorinostat at 2.5 µM final
Read-out: 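Cell viability by CellTiter-Fluor and caspase 3/7 activity by luminescence, each scaled to mock wells per plate, duplicates averaged, then robust z-scored over all plates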
Scale: viability robust z-score: higher = more viable cells than screen typical; caspase robust z-score: higher = more caspase 3/7 activity than screen typical
Rule for the call: 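a knock-down is a hit when classed RV1 or RV2 for lowered viability, or CA1 or CA2 for caspase activation; those lethal without drug were dropped; hits were retested singly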
The whole screen tested about 18,000 reagents; shown is an unselected part. In the full data, 450 (2.5%) were called active. 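Single biological run; no consistent viability z cut-off exists, so the class columns, not z-scores, define the calls.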

After knock-down of SFPQ the results were viability hit class no change; caspase hit class no change; viability robust z-score -1.73; caspase robust z-score 1.92; inactive.
Against KCTD14 the deposit lists viability hit class no change; caspase hit class no change; viability robust z-score -1.08; caspase robust z-score 2.01; inactive.
For PDE4A the deposit lists viability hit class no change; caspase hit class no change; viability robust z-score 0.66; caspase robust z-score 1.52; inactive.
Against PTK2 the deposit lists viability hit class no change; caspase hit class no change; viability robust z-score 0.19; caspase robust z-score -1.05; inactive.
Against EPHA8, the entry reads viability hit class no change; caspase hit class no change; viability robust z-score 1.72; caspase robust z-score -0.12; inactive.
After knock-down of MAP3K20, the record shows viability hit class no change; caspase hit class no change; viability robust z-score 0.57; caspase robust z-score 1.73; inactive.
With knock-down of DYNC2H1 the results were viability hit class no change; caspase hit class no change; viability robust z-score -0.77; caspase robust z-score -0.91; inactive.
After knock-down of FMR1, the screen gave viability hit class no change; caspase hit class CA2 (caspase activation); viability robust z-score -2.43; caspase robust z-score 5.15; active.
MRTFB gave viability hit class no change; caspase hit class no change; viability robust z-score -0.12; caspase robust z-score 1.93; inactive.
For SMOC1, the entry reads viability hit class no change; caspase hit class no change; viability robust z-score 2.04; caspase robust z-score 1.47; inactive.
For STARD6, the entry reads viability hit class no change; caspase hit class no change; viability robust z-score 0.65; caspase robust z-score 0.14; inactive.
With knock-down of IFNA8, the record shows viability hit class no change; caspase hit class no change; viability robust z-score -0.48; caspase robust z-score -1.23; inactive.
NME3 scored viability hit class no change; caspase hit class no change; viability robust z-score -1.77; caspase robust z-score 0.94; inactive.
CEP192 showed viability hit class no change; caspase hit class no change; viability robust z-score -0.34; caspase robust z-score 0.24; inactive.
Knock-down of ACSL3 came out at: viability hit class no change; caspase hit class no change; viability robust z-score -0.06; caspase robust z-score -0.88; inactive.
Silencing of PPP4R2 came out at: viability hit class no change; caspase hit class no change; viability robust z-score 0.06; caspase robust z-score -0.92; inactive.
With knock-down of GPRC5A, the record shows viability hit class no change; caspase hit class no change; viability robust z-score 0.78; caspase robust z-score -0.3; inactive.
Against OR9G9, the values are viability hit class no change; caspase hit class no change; viability robust z-score 0.36; caspase robust z-score -1.04; inactive.
SOWAHA gave viability hit class no change; caspase hit class no change; viability robust z-score 1.21; caspase robust z-score -0.11; inactive.
With knock-down of ROPN1, the record shows viability hit class no change; caspase hit class no change; viability robust z-score -1.21; caspase robust z-score 1.07; inactive.
With knock-down of ATP6V1E1, the record shows viability hit class no change; caspase hit class no change; viability robust z-score -0.3; caspase robust z-score -0.94; inactive.

In a second layout: results already given.
{"target gene": "PDE4A", "viability hit class": "no change", "caspase hit class": "no change", "viability robust z-score": 0.66, "caspase robust z-score": 1.52, "outcome": "inactive"}
{"target gene": "PTK2", "viability hit class": "no change", "caspase hit class": "no change", "viability robust z-score": 0.19, "caspase robust z-score": -1.05, "outcome": "inactive"}
{"target gene": "EPHA8", "viability hit class": "no change", "caspase hit class": "no change", "viability robust z-score": 1.72, "caspase robust z-score": -0.12, "outcome": "inactive"}
